Experimental findings from paper PMC8994779 are described below.

No constants are given. Whether binding was seen depends on the method and setting. Binding seen in cells or lysates may run through a third protein. Some results given as binding are weak or reduced against the parent protein; the word gives no strength.

In the assay the target is T1, STING (mouse (endogenous in cardiac tissue)) (UniProt Q3TBT3).
T1 sequence: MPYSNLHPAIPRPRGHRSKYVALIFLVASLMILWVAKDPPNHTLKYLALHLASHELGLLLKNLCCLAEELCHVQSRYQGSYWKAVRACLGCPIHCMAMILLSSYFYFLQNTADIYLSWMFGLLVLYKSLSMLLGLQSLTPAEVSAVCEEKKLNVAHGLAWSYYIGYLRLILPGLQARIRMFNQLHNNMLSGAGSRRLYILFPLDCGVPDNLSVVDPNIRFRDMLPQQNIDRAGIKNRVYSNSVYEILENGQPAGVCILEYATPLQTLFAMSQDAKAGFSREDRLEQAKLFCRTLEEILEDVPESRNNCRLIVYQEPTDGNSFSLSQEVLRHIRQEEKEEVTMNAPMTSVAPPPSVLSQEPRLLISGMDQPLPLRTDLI
Kind of assay: co-IP; lysate of homogenized cardiac tissue of mice given LPS (10 mg/kg) or PBS for 12 h; mouse anti-ICA69 antibody (sc-271489) with Protein A/G PLUS-Agarose at 4 °C overnight, four washes with RIPA buffer, western blot; the reverse precipitation of STING is told in the results only. Background: Immunoblotting shows a protein as a band on a membrane.

B1: Islet cell autoantigen 69 (protein, UniProt P97411 1-478)
chain: MSGHKCYSWELQDRFAQDKSVVNKMQQKYWETKQAFIKATGKKEDEHVVASDADLDAKLELFHSIQRTCLDLSKAIVLYQKRICFLSQEENELGKFLRSQGFQDKTRAGKMMQATGKALCFSSQQRLALRNPLCRFHQEVETFRHRAISDTWLTVNRMEQYRTEYRGALLWMKDVSQELDPDLYKQMEKFRKVQTQVRLAKKNFDKLKMDVCQKVDLLGASRCNLLSHMLATYQTTLLHFWEKTSHTMAAIHESFKGYQPYEFTTLKSLQDPMKKLVEKEGKKTSWRENREAVAPEPRQLISLEDEHKDSSAYKTEEGTSVLSSVDKGSVHDTCSGPIDELLDGKPEEACLGPTAGTPEPESGDKDDLLLLNEIFSTSCLDEGEFSREWAAVFGDDQLKEPAPMGAQGEPDPKPQIGSGFLPSQLLDQNMKDLQASLQEPAKAASDLTAWFSLFADLDPLSNPDAVGKTDKEHELLNA
Take B1: the binding entry is “binds”.
